The test addresses EGFP-TEV-sNASP (human) (UniProt P49321). Briefly: affinity purification with mass spectrometry; GFP-Trap pull-down of eGFP-sNASP from HEK293-F, TEV release, 1D native gel; bands cut out, in-gel digestion, LC-MS/MS.

Data on 2 molecules can be found in publication PMC9560165.

Results are given in words; binding and its absence hold for the method and conditions named. In cells and extracts the contact can be indirect. These calls come from enrichment with a bait or labelling near it, and not all partners need be listed. No binding means not detected with the bait.

B1: DNAJC9 (protein, UniProt Q8WXX5 1-260)
chain: MGLLDLCEEVFGTADLYRVLGVRREASDGEVRRGYHKVSLQVHPDRVGEGDKEDATRRFQILGKVYSVLSDREQRAVYDEQGTVDEDSPVLTQDRDWEAYWRLLFKKISLEDIQAFEKTYKGSEEELADIKQAYLDFKGDMDQIMESVLCVQYTEEPRIRNIIQQAIDAGEVPSYNAFVKESKQKMNARKRRAQEEAKEAEMSRKELGLDEGVDSLKAAIQSRQKDRQKEMDNFLAQMEAKYCKSSKGGGKKSALKKEKK
In the case of B1, the binding entry is given as “no binding”.

B2: UBR7 (protein, UniProt Q8N806 1-425)
chain: MAGAEGAAGRQSELEPVVSLVDVLEEDEELENEACAVLGGSDSEKCSYSQGSVKRQALYACSTCTPEGEEPAGICLACSYECHGSHKLFELYTKRNFRCDCGNSKFKNLECKLLPDKAKVNSGNKYNDNFFGLYCICKRPYPDPEDEIPDEMIQCVVCEDWFHGRHLGAIPPESGDFQEMVCQACMKRCSFLWAYAAQLAVTKISTEDDGLVRNIDGIGDQEVIKPENGEHQDSTLKEDVPEQGKDDVREVKVEQNSEPCAGSSSESDLQTVFKNESLNAESKSGCKLQELKAKQLIKKDTATYWPLNWRSKLCTCQDCMKMYGDLDVLFLTDEYDTVLAYENKGKIAQATDRSDPLMDTLSSMNRVQQVELICEYNDLKTELKDYLKRFADEGTVVKREDIQQFFEEFQSKKRRRVDGMQYYCS
As to B2, the binding entry is given as “binds”.
